No constants are given. Whether binding was seen depends on the method and setting. In cells and extracts the contact can be indirect. Some entries that bind do so weakly or less than the wild type. Where a sequence is shown, tags or fusion partners need not be part of it.
Molecular target: T1, MEG-1::GFP (C. elegans) (UniProt Q21126)
T1 sequence: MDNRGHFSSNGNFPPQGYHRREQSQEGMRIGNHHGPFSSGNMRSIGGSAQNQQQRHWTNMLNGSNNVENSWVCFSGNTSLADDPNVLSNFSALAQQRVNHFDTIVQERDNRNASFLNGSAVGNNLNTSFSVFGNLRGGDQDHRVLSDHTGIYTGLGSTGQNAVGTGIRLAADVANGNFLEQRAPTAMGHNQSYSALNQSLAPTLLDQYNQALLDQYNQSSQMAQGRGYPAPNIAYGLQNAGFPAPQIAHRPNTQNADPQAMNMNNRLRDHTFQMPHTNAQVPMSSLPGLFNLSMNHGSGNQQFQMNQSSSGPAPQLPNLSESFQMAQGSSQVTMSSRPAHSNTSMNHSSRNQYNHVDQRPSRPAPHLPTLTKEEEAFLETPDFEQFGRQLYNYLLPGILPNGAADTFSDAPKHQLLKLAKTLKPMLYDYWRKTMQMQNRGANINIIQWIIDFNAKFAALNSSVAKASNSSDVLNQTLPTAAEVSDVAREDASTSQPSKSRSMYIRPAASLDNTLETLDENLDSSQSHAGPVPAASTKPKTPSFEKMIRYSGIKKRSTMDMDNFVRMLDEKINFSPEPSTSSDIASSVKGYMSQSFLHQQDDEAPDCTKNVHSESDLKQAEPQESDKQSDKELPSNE
Assay: co-IP

Amino acid sequences for entries named in this document (tags omitted).
UniProt G5EF15: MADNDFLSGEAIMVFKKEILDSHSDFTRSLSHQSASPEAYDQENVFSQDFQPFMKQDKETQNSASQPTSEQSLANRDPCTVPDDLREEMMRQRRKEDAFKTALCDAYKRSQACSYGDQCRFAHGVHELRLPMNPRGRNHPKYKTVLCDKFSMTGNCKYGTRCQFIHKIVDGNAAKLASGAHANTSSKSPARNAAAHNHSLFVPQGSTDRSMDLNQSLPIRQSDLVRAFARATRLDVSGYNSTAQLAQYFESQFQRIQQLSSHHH

Question: How did the binding turn out when POS-1 (from UniProt G5EF15 1-264) was run?
Answer: The binding was “binds”.

— doi:10.1101/2022.08.15.504042
